Laboratory results taken from the supplement of paper PMC12823440, “Inhibitors supercharge kinase turnover through native proteolytic circuits” (Nature, 2025).
This is one part of the list. The calls rarely recur for the same compound in another form.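 Kinases, fused to nanoluciferase, were expressed in K562 cells; luminescence was measured every 4 h from 2 to 18 h as percent of control (DMSO = 100%, positive control = 0%). A time point is decreased if signal falls significantly (2 sigma). Hits were called by the authors by a rule that is not shown; the count of time points alone does not decide it.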

By UniProt entry, the sequences of proteins in these tests, tags left out. Where a name states a change or a piece, a line headed by the entry shows the natural chain unless it says otherwise.
UniProt P42680: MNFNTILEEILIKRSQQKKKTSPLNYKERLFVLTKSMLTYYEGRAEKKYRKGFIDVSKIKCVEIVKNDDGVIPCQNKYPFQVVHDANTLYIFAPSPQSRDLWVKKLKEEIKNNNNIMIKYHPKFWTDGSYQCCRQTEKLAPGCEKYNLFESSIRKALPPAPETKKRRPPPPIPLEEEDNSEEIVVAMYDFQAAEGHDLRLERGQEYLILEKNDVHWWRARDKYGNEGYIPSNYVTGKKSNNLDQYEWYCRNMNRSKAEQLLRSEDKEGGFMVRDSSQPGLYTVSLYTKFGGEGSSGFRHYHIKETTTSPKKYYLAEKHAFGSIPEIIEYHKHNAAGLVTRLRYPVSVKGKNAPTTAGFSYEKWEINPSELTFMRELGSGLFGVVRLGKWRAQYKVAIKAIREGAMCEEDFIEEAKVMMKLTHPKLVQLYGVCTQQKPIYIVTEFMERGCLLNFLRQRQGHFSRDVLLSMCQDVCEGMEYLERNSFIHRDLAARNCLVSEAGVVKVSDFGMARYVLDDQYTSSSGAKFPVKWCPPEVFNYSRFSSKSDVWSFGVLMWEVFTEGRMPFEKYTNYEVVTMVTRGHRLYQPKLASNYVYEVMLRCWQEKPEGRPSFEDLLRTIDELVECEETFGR
UniProt P53671: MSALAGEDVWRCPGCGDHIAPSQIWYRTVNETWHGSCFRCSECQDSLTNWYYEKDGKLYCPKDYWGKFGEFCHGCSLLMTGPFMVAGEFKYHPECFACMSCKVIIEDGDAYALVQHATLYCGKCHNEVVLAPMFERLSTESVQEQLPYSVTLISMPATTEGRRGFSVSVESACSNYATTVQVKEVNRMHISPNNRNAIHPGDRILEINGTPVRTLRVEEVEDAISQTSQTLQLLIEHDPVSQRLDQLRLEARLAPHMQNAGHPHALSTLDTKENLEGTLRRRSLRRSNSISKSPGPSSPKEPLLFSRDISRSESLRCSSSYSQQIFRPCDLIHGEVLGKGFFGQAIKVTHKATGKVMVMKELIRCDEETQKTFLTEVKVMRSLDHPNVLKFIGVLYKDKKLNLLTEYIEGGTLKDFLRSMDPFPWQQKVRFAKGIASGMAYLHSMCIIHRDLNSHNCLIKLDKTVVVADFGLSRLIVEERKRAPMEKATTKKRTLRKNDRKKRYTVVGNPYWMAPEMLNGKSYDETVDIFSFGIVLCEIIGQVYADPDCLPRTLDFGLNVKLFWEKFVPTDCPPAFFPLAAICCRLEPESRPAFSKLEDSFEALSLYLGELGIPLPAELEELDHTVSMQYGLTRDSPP
UniProt P14616: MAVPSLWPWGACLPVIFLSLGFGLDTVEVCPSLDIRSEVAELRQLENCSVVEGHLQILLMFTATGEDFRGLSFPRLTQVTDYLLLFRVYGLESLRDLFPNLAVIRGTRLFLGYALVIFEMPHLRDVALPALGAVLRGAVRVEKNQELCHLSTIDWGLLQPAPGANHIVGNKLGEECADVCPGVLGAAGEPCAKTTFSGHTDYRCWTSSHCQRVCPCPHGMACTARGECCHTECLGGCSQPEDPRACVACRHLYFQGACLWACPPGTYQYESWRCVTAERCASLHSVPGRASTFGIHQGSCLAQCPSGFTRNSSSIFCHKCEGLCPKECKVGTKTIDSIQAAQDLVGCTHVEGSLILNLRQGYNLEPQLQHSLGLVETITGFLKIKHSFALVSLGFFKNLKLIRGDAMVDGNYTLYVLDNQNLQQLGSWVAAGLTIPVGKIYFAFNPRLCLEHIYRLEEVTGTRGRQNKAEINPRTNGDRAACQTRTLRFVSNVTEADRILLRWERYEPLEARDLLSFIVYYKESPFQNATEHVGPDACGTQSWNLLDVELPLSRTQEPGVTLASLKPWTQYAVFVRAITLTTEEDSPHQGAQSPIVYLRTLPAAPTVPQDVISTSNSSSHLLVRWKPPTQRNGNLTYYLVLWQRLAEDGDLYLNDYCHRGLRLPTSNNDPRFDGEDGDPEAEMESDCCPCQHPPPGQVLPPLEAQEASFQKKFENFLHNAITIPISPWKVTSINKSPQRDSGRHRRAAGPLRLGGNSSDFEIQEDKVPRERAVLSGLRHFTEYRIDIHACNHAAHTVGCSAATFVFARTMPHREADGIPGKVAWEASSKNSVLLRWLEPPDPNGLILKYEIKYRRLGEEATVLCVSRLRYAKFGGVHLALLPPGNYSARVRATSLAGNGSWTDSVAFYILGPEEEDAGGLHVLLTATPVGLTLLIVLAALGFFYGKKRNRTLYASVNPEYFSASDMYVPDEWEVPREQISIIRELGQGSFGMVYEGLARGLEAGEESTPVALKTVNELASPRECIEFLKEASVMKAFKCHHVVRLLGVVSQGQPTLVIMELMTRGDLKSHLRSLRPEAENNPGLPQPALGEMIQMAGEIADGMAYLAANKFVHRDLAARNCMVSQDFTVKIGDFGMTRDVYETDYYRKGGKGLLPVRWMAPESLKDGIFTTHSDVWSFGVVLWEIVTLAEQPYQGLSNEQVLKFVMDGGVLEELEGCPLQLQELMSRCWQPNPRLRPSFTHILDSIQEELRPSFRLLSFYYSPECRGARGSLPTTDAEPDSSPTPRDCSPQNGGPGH
UniProt P29597: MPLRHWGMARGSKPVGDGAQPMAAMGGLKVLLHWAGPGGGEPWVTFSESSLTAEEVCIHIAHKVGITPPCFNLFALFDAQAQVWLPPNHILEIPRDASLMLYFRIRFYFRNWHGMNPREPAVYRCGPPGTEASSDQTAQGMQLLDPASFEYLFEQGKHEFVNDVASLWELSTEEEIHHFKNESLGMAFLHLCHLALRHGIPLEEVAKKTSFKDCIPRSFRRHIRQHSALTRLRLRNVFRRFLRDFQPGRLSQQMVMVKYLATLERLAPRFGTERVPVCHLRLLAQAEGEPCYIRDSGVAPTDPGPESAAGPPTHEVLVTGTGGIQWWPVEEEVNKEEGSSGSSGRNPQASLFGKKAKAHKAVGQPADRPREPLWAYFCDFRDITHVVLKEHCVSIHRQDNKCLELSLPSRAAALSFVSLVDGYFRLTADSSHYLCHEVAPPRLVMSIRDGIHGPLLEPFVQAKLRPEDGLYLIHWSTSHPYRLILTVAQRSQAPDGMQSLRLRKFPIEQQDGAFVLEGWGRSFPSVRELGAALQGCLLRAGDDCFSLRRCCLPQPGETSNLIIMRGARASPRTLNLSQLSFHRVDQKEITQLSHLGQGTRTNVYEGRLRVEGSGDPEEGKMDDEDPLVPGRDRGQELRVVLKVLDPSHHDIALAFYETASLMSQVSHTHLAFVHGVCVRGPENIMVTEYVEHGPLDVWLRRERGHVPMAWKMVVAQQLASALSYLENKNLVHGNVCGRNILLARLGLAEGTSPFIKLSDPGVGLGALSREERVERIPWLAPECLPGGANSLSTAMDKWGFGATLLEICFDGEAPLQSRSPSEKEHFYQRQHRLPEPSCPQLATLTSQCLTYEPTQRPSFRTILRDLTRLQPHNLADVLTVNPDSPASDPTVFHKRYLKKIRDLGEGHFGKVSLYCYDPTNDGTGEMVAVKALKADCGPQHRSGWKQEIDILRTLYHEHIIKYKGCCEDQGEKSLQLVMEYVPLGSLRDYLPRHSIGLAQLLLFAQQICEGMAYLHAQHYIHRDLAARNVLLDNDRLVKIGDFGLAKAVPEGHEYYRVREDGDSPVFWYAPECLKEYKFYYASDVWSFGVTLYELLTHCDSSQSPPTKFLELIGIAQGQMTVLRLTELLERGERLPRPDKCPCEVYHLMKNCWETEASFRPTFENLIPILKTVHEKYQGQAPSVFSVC
UniProt Q13131: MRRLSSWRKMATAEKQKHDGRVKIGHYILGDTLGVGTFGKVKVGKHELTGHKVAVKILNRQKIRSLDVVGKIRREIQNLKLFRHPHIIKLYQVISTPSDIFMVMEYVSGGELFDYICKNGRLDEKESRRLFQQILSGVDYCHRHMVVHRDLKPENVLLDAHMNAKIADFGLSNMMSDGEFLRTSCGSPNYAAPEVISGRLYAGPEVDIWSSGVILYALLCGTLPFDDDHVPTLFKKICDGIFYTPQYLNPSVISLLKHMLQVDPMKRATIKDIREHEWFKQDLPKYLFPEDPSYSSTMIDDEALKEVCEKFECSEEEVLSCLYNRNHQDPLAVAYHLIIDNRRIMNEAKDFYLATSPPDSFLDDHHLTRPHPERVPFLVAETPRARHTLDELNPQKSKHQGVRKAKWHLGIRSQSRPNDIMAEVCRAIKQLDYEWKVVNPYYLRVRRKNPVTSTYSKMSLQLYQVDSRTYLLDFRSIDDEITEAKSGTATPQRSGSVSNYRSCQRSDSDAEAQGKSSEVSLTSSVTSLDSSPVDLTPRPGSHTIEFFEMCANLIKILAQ
UniProt Q6PHR2: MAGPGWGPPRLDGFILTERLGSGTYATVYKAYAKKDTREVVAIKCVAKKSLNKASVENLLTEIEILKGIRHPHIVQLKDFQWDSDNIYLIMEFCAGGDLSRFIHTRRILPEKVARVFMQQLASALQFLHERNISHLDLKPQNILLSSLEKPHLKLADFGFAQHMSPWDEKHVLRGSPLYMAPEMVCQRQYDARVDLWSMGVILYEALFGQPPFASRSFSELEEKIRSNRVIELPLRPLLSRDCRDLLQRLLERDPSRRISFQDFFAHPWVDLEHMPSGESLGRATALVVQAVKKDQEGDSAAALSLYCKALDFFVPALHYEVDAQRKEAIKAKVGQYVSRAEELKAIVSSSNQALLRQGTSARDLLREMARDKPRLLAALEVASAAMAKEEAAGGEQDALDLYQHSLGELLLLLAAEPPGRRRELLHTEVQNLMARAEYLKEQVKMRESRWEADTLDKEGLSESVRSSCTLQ
UniProt Q14289, whole entry, looked up: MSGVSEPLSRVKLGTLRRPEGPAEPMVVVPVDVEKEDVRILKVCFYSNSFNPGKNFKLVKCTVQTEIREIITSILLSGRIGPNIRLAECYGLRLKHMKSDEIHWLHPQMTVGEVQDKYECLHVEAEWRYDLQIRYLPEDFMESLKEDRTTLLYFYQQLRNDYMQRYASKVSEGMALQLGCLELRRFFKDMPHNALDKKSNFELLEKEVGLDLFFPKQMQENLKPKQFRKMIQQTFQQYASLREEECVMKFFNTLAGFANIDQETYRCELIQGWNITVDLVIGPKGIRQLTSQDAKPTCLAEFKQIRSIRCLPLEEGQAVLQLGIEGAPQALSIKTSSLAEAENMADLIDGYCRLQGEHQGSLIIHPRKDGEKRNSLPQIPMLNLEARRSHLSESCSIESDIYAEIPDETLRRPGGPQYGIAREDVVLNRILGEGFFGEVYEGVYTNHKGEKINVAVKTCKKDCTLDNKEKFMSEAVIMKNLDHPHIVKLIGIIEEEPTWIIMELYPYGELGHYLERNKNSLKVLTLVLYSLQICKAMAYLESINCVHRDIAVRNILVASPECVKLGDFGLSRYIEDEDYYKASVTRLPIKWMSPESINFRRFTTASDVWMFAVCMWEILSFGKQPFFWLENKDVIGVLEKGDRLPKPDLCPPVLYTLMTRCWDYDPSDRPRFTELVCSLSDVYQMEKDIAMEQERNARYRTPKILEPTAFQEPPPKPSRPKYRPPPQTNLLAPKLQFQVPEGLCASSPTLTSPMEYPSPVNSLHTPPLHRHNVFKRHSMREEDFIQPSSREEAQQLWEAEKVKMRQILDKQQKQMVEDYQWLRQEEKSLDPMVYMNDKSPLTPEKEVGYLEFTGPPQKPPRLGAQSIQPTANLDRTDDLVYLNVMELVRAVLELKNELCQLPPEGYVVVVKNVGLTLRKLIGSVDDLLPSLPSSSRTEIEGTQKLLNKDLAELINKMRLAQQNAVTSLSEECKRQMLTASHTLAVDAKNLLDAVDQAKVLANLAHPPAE
UniProt Q00535, whole entry, looked up: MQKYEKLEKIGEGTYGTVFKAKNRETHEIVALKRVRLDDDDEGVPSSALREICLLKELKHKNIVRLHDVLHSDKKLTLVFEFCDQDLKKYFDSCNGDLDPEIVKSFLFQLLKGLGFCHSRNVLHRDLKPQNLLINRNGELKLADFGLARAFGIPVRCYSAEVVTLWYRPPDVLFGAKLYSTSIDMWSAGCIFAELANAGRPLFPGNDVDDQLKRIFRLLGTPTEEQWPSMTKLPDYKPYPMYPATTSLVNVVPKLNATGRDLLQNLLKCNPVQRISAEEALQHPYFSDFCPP
UniProt P06239: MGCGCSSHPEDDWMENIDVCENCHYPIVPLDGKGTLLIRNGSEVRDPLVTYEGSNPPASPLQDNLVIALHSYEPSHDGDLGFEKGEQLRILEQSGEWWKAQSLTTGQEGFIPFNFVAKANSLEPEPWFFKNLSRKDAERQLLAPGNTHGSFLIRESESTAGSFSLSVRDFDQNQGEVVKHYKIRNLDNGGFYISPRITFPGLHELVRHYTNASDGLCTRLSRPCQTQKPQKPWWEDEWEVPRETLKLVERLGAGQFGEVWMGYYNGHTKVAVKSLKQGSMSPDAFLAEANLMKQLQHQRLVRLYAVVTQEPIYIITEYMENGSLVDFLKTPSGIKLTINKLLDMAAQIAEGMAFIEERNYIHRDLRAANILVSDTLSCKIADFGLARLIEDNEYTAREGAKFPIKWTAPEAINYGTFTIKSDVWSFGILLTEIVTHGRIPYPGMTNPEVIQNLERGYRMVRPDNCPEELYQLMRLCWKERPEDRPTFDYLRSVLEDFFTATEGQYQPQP

How the values were obtained:
Assay in all cases: number of time points (of 5) at which kinase-Nluc abundance scored as decreased, DMSO-normalised (count); higher = more persistent destabilization
KN-93 (phosphate) = compound: COc1ccc(S(=O)(=O)N(CCO)c2ccccc2CN(C)C/C=C/c2ccc(Cl)cc2)cc1 [KN-93 (phosphate)]; conditions: 2.5 µM; K562; 2-18 h
KN-92 (hydrochloride) = compound: COc1ccc(S(=O)(=O)Nc2ccccc2CN(C)C/C=C/c2ccc(Cl)cc2)cc1 [KN-92 (hydrochloride)]; conditions: 2.5 µM; K562; 2-18 h
KN-92 (phosphate) = compound: COc1ccc(S(=O)(=O)Nc2ccccc2CN(C)C/C=C/c2ccc(Cl)cc2)cc1 [KN-92 (phosphate)]; conditions: 2.5 µM; K562; 2-18 h
AX-024 hydrochloride = compound: COc1ccc2c(c1)C(c1ccc(F)cc1)=C(CN1CCCC1)CO2 [AX-024 hydrochloride]; conditions: 10 µM; K562; 2-18 h
[1] = compound: COc1ccc2c(c1)C(c1ccc(F)cc1)=C(CN1CCCC1)CO2; conditions: 10 µM; K562; 2-18 h
Ilaprazole (sodium) = compound: COc1ccnc(C[S+]([O-])c2nc3cc(-n4cccc4)ccc3[nH]2)c1C [Ilaprazole (sodium)]; conditions: 10 µM; K562; 2-18 h
Ilaprazole = compound: COc1ccnc(C[S+]([O-])c2nc3cc(-n4cccc4)ccc3[nH]2)c1C [Ilaprazole]; conditions: 10 µM; K562; 2-18 h
PLX5622 (hemifumarate) = compound: COc1ncc(F)cc1CNc1ccc(Cc2c[nH]c3ncc(C)cc23)c(F)n1 [PLX5622 (hemifumarate)]; conditions: 10 µM; K562; 2-18 h
[2] = compound: COc1ncc(F)cc1CNc1ccc(Cc2c[nH]c3ncc(C)cc23)c(F)n1; conditions: 10 µM; K562; 2-18 h
[3] = compound: CS(=O)(=O)N1CCN(Cc2cc3nc(-c4cccc5[nH]ncc45)nc(N4CCOCC4)c3s2)CC1 [Pictilisib (dimethanesulfonate)]; conditions: 10 µM; K562; 2-18 h
Pictilisib = compound: CS(=O)(=O)N1CCN(Cc2cc3nc(-c4cccc5[nH]ncc45)nc(N4CCOCC4)c3s2)CC1 [Pictilisib]; conditions: 10 µM; K562; 2-18 h
[4] = compound: C[C@@H](N)c1ccc(C(=O)Nc2ccnc3[nH]ccc23)cc1; conditions: 10 µM; K562; 2-18 h
[5] = compound: C[C@H](CCC(=O)NCCS(=O)(=O)O)[C@H]1CC[C@H]2[C@@H]3[C@@H](O)C[C@@H]4C[C@H](O)CC[C@]4(C)[C@H]3CC[C@]12C [Tauroursodeoxycholate (dihydrate)]; conditions: 10 µM; K562; 2-18 h
[6] = compound: C[C@H](CCC(=O)NCCS(=O)(=O)O)[C@H]1CC[C@H]2[C@@H]3[C@@H](O)C[C@@H]4C[C@H](O)CC[C@]4(C)[C@H]3CC[C@]12C [Tauroursodeoxycholate (sodium)]; conditions: 10 µM; K562; 2-18 h
[7] = compound: C[C@H](Nc1cc(-c2cnn(C)c2)cc(Nc2cnccn2)n1)c1ccc(F)cc1 [Ilginatinib hydrochloride]; conditions: 2.5 µM; K562; 2-18 h
Ilginatinib = compound: C[C@H](Nc1cc(-c2cnn(C)c2)cc(Nc2cnccn2)n1)c1ccc(F)cc1 [Ilginatinib]; conditions: 2.5 µM; K562; 2-18 h
[8] = compound: C[S+]([O-])c1ccc(-c2nc(-c3ccc(F)cc3)c(-c3ccncc3)[nH]2)cc1; conditions: 10 µM; K562; 2-18 h
Toceranib (phosphate) = compound: Cc1[nH]c(/C=C2\C(=O)Nc3ccc(F)cc32)c(C)c1C(=O)NCCN1CCCC1 [Toceranib (phosphate)]; conditions: 2 µM; K562; 2-18 h
Toceranib = compound: Cc1[nH]c(/C=C2\C(=O)Nc3ccc(F)cc32)c(C)c1C(=O)NCCN1CCCC1 [Toceranib]; conditions: 2 µM; K562; 2-18 h
[9] = compound: C[C@@H](N)[C@H]1CC[C@H](C(=O)Nc2ccncc2)CC1; conditions: 10 µM; K562; 2-18 h

Measured: number of time points

RET (UniProt P07949)
2: Ilginatinib
1: [7]
not listed: [9]
0: all other assays above

EGFR_T790M (UniProt P00533)
not listed: [8] | [9]
0: all other assays above

CDK2 (UniProt P24941)
not listed: [4]
0: all other assays above

TEC (UniProt P42680)
1: Ilginatinib
0: all other assays above

PDGFRB (UniProt P09619)
1: [7]
2: Ilginatinib
0: all other assays above

MAP2K2 (UniProt P36507)
0: all assays above

LIMK2 (UniProt P53671)
not listed: [9]
0: all other assays above

SYK (UniProt P43405)
0: all assays above

INSRR (UniProt P14616)
2: [7] | Ilginatinib
0: all other assays above

TYK2 (UniProt P29597)
3: [7]
2: Ilginatinib
0: all other assays above

EGFR_G719S_T790M (UniProt P00533)
2: [7]
1: Ilginatinib
not listed: [8] | [9]
0: all other assays above

PRKAA1 (UniProt Q13131)
5: [7]
1: Ilginatinib
0: all other assays above

ULK3 (UniProt Q6PHR2)
2: [7] | Ilginatinib
0: all other assays above

PTK2B (UniProt Q14289)
not listed: [9]
0: all other assays above

EGFR (UniProt P00533)
1: Ilginatinib
not listed: [8] | [9]
0: all other assays above

CDK5 (UniProt Q00535)
0: all assays above

LCK (UniProt P06239)
not listed: [9]
0: all other assays above
